1 sequence from publication PMC9068813 can be followed below.

For at least one entry, the source does not settle the construct or the ends of the probe. The comparison behind a weaker result is the experiment's own reference, which may not be listed here. At least one verdict was read from the data and is not stated in words by the source.

The test system of the series is NELF complex WT. The series can be described thus: EMSA (NELF release from PEC). Particulars: effect depends on RNA length; 20 mM Na-HEPES pH 7.4, 100 mM NaCl, 25 mM KCl, 3 mM MgCl2, 2 mM DTT; assembly 30 °C, eRNA incubation 15-20 min at room …; 3.5% native PAGE 0.5x TBE at 4 °C; recombinant protein; protein details: His-tag (Ni-NTA purified). (Mobility shift assays separate free from complexed probe on a gel.)

Regarding “GAGAGAGAGAGAGAGAGAGAGAGAGAGAGAGAGAGAGAGA [poly(GA), 40 nt]”, the binding result was “binds more weakly”.
